Paper PMC8528870
These are yes or no findings as the source states them, for the method shown. In cells and extracts the contact can be indirect. Here binding means that the protein was enriched with, or labelled near, the bait; the list need not be complete.

By UniProt entry, the sequences of proteins in these tests, tags left out.
UniProt Q9H4A6: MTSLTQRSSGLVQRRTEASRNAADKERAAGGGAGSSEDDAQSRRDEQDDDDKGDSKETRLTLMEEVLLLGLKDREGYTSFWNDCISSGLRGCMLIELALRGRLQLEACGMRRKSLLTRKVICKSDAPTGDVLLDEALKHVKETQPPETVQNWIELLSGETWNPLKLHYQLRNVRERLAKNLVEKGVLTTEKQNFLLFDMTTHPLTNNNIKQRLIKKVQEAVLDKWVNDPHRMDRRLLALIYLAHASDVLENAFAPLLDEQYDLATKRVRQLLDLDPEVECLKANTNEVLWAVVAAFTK
UniProt Q07065: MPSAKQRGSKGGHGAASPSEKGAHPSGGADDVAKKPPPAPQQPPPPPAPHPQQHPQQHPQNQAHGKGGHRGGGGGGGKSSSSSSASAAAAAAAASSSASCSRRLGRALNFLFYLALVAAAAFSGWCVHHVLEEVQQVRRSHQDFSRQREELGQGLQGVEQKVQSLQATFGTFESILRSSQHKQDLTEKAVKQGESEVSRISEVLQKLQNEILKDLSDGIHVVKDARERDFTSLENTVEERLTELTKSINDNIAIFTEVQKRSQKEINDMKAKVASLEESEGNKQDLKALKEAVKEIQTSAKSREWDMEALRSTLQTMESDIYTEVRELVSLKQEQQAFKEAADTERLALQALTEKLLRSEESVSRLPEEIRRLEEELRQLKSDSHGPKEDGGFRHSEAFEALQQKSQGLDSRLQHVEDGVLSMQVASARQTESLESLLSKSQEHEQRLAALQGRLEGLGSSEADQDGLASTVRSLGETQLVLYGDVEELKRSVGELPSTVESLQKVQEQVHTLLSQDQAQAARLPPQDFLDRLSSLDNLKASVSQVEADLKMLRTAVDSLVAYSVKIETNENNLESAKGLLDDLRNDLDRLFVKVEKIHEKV

Target: SFB-GOLPH3 (Golgi phosphoprotein 3) (human) (UniProt Q9H4A6)
Test: affinity purification with mass spectrometry; IP-MASS in 293T cells transfected with SFB-vector or SFB-GOLPH3; SFB-GOLPH3 as bait

binding: binds
Substance: cytoskeleton-associated protein 4 (CKAP4), endogenous (from UniProt Q07065 1-602)
